{"source": "PubChem BioAssay AID602196 (INSERM, 2012)", "test": "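Modifiers of cisplatin sensitivity in A549 cells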", "cells": "human A549 lung cancer cells", "reagent": "siRNA pair against human genes", "time to read-out": "48 h transfection before cisplatin; time from cisplatin to read-out not stated", "treatment": "cisplatin at a dose killing half of control-siRNA cells; exact dose and duration not given", "read-out": "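Cisplatin cell death as a shift from the 50% death seen with control siRNA; siRNAs toxic or growth-blocking alone scored 0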", "direction": "two-siRNA summed score (-2 to +2): higher = both siRNAs protect from cisplatin killing; -2 means both sensitise", "hit rule": "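siRNAs harmful alone (LDH or WST-1) get 0; others get +1 for less and -1 for more cisplatin killing; genes are active when the two siRNAs give the same sign, summing to ±2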", "meaning of the calls": "active = both siRNAs shift cisplatin killing the same way; inactive = no consistent shift, or siRNA harmful alone", "note": "In all, the deposit lists about 23,000 reagents; shown is a random part of them. 455 of them (2%) were called active. 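Active includes both protection and sensitisation; some change values fall well beyond the stated -50 to +50 range.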 Reagents against one gene are numbered here. Not all columns of the deposit are shown. No sequences are given here. The record does not give: the amount of reagent."}
{"target gene": "BAHD1", "reagent": 1, "two-siRNA summed score (-2 to +2)": 0, "Call": "inactive"}
{"target gene": "VPS37C", "reagent": 1, "two-siRNA summed score (-2 to +2)": 0, "Call": "inactive"}
{"target gene": "POLR1HASP", "reagent": 1, "two-siRNA summed score (-2 to +2)": 0, "Call": "inactive"}
{"target gene": "TNK1", "reagent": 1, "two-siRNA summed score (-2 to +2)": 0, "Call": "inactive"}
{"target gene": "LOC441053", "reagent": 1, "two-siRNA summed score (-2 to +2)": 0, "Call": "inactive"}
{"target gene": "EFNA2", "reagent": 1, "two-siRNA summed score (-2 to +2)": 0, "Call": "inactive"}
{"target gene": "IARS1", "reagent": 1, "two-siRNA summed score (-2 to +2)": 0, "Call": "inactive"}
{"target gene": "CA7", "reagent": 1, "two-siRNA summed score (-2 to +2)": 1, "Call": "inactive"}
{"target gene": "METAP1D", "reagent": 1, "two-siRNA summed score (-2 to +2)": 1, "Call": "inactive"}
{"target gene": "LOC440105", "reagent": 1, "two-siRNA summed score (-2 to +2)": 0, "Call": "inactive"}
{"target gene": "ZNF81", "reagent": 1, "two-siRNA summed score (-2 to +2)": 1, "Call": "inactive"}
{"target gene": "CHST13", "reagent": 1, "two-siRNA summed score (-2 to +2)": 0, "Call": "inactive"}
{"target gene": "KIAA1026", "reagent": 1, "two-siRNA summed score (-2 to +2)": 0, "Call": "inactive"}
{"target gene": "FOXI1", "reagent": 1, "two-siRNA summed score (-2 to +2)": 0, "Call": "inactive"}
{"target gene": "CRISPLD2", "reagent": 1, "two-siRNA summed score (-2 to +2)": 0, "Call": "inactive"}
{"target gene": "AP1AR", "reagent": 1, "two-siRNA summed score (-2 to +2)": 0, "Call": "inactive"}
{"target gene": "PIGZ", "reagent": 1, "two-siRNA summed score (-2 to +2)": 0, "Call": "inactive"}
{"target gene": "C4BPB", "reagent": 1, "two-siRNA summed score (-2 to +2)": 0, "Call": "inactive"}
{"target gene": "C4BPB", "reagent": 2, "two-siRNA summed score (-2 to +2)": 0, "Call": "inactive"}
{"target gene": "SEPSECS", "reagent": 1, "two-siRNA summed score (-2 to +2)": 0, "Call": "inactive"}
{"target gene": "LOC389710", "reagent": 1, "two-siRNA summed score (-2 to +2)": 1, "Call": "inactive"}
{"target gene": "ALPP", "reagent": 1, "two-siRNA summed score (-2 to +2)": 1, "Call": "inactive"}
{"target gene": "COX4I2", "reagent": 1, "two-siRNA summed score (-2 to +2)": 0, "Call": "inactive"}
{"target gene": "OR10AD1", "reagent": 1, "two-siRNA summed score (-2 to +2)": 0, "Call": "inactive"}
{"target gene": "CHM", "reagent": 1, "two-siRNA summed score (-2 to +2)": 0, "Call": "inactive"}
{"target gene": "ELOVL2", "reagent": 1, "two-siRNA summed score (-2 to +2)": 0, "Call": "inactive"}
{"target gene": "RSPH9", "reagent": 1, "two-siRNA summed score (-2 to +2)": 2, "Call": "active"}
{"target gene": "COPA", "reagent": 1, "two-siRNA summed score (-2 to +2)": 0, "Call": "inactive"}
{"target gene": "EXOSC9", "reagent": 1, "two-siRNA summed score (-2 to +2)": 0, "Call": "inactive"}
{"target gene": "HERC4", "reagent": 1, "two-siRNA summed score (-2 to +2)": -1, "Call": "inactive"}
{"target gene": "ANGEL2", "reagent": 1, "two-siRNA summed score (-2 to +2)": 0, "Call": "inactive"}
